According to the supplement of paper PMC8728848:
Some of the results follow.

Columns and labels:
Test in all cases: glycan array binding signal (z-score within array); higher = stronger binding
Conditions in all cases: glycan notation: IUPAC condensed, linker removed
[1] = molecular target: Neu5Ac(a2-6)Gal(b1-4)GlcNAc(b1-2)Man(a1-3)[Man(a1-6)]Man(b1-4)GlcNAc(b1-4)GlcNAc
Method in brief: (§1)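 Glycan array data were curated from 3228 arrays in the Consortium for Functional Glycomics database and kept only where the protein sequence was available. Glycan names were converted to IUPAC-condensed notation, and columns mapping to the same glycan were averaged. The binding signal is a within-array Z-score, averaged across arrays of the same protein sequence at different concentrations or buffers and across linkers. Negative Z-scores can be read as non-binding.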

[2] = molecular target: Neu5Ac(a2-6)Gal(b1-4)GlcNAc(b1-2)Man(a1-3)[Neu5Ac(a2-3)Gal(b1-4)GlcNAc(b1-2)Man(a1-6)]Man(b1-4)GlcNAc(b1-4)GlcNAc
Method in brief: as §1

[3] = molecular target: Neu5Ac(a2-6)Gal(b1-4)GlcNAc(b1-2)Man(a1-3)[Neu5Ac(a2-6)Gal(b1-4)GlcNAc(b1-2)Man(a1-6)]Man(b1-4)GlcNAc(b1-4)GlcNAc
Method in brief: as §1

[4] = molecular target: Neu5Ac(a2-6)Gal(b1-4)GlcNAc(b1-2)Man(a1-3)[Neu5Ac(a2-6)Gal(b1-4)GlcNAc(b1-2)Man(a1-6)]Man(b1-4)GlcNAc(b1-4)[Fuc(a1-6)]GlcNAc
Method in brief: as §1

[5] = molecular target: Neu5Ac(a2-6)Gal(b1-4)GlcNAc(b1-2)Man(a1-6)Man(b1-4)GlcNAc(b1-4)GlcNAc
Method in brief: as §1

[6] = molecular target: Neu5Ac(a2-6)Gal(b1-4)GlcNAc(b1-2)Man(a1-6)[Gal(b1-4)GlcNAc(b1-2)Man(a1-3)]Man(b1-4)GlcNAc(b1-4)GlcNAc
Method in brief: as §1

[7] = molecular target: Neu5Ac(a2-6)Gal(b1-4)GlcNAc(b1-2)Man(a1-6)[GlcNAc(b1-2)Man(a1-3)]Man(b1-4)GlcNAc(b1-4)GlcNAc
Method in brief: as §1

[8] = molecular target: Neu5Ac(a2-6)Gal(b1-4)GlcNAc(b1-2)Man(a1-6)[Man(a1-3)]Man(b1-4)GlcNAc(b1-4)GlcNAc
Method in brief: as §1

[9] = molecular target: Neu5Ac(a2-6)Gal(b1-4)GlcNAc(b1-2)[Neu5Ac(a2-6)Gal(b1-4)GlcNAc(b1-4)]Man(a1-3)[GlcNAc(b1-4)][Neu5Ac(a2-6)Gal(b1-4)GlcNAc(b1-2)[Neu5Ac(a2-6)Gal(b1-4)GlcNAc(b1-6)]Man(a1-6)]Man(b1-4)GlcNAc(b1-4)GlcNAc
Method in brief: as §1

[10] = molecular target: Neu5Ac(a2-6)Gal(b1-4)GlcNAc(b1-2)[Neu5Ac(a2-6)Gal(b1-4)GlcNAc(b1-4)]Man(a1-3)[GlcNAc(b1-4)][Neu5Ac(a2-6)Gal(b1-4)GlcNAc(b1-4)Man(a1-6)]Man(b1-4)GlcNAc(b1-4)GlcNAc
Method in brief: as §1

[11] = molecular target: Neu5Ac(a2-6)Gal(b1-4)GlcNAc(b1-2)[Neu5Ac(a2-6)Gal(b1-4)GlcNAc(b1-6)]Man(a1-6)[Neu5Ac(a2-6)Gal(b1-4)GlcNAc(b1-2)Man(a1-3)][GlcNAc(b1-4)]Man(b1-4)GlcNAc(b1-4)GlcNAc
Method in brief: as §1

[12] = molecular target: Neu5Ac(a2-6)Gal(b1-4)GlcNAc(b1-3)Gal(b1-3)GlcNAc
Method in brief: as §1

[13] = molecular target: Neu5Ac(a2-6)Gal(b1-4)GlcNAc(b1-3)Gal(b1-4)GlcNAc
Method in brief: as §1

[14] = molecular target: Neu5Ac(a2-6)Gal(b1-4)GlcNAc(b1-3)Gal(b1-4)GlcNAc(b1-2)Man(a1-3)[Neu5Ac(a2-6)Gal(b1-4)GlcNAc(b1-3)Gal(b1-4)GlcNAc(b1-2)Man(a1-6)]GalNAc
Method in brief: as §1

[15] = molecular target: Neu5Ac(a2-6)Gal(b1-4)GlcNAc(b1-3)Gal(b1-4)GlcNAc(b1-3)Gal(b1-4)GlcNAc
Method in brief: as §1

[16] = molecular target: Neu5Ac(a2-6)Gal(b1-4)GlcNAc(b1-3)Gal(b1-4)GlcNAc(b1-3)Gal(b1-4)GlcNAc(b1-2)Man(a1-3)[Neu5Ac(a2-6)Gal(b1-4)GlcNAc(b1-3)Gal(b1-4)GlcNAc(b1-3)Gal(b1-4)GlcNAc(b1-2)Man(a1-6)]GalNAc
Method in brief: as §1

[17] = molecular target: Neu5Ac(a2-6)Gal(b1-4)GlcNAc(b1-3)Gal(b1-4)GlcNAc(b1-3)GalNAc
Method in brief: as §1

[18] = molecular target: Neu5Ac(a2-6)Gal(b1-4)GlcNAc(b1-3)Gal(b1-4)GlcNAc(b1-3)[Neu5Ac(a2-6)Gal(b1-4)GlcNAc(b1-3)Gal(b1-4)GlcNAc(b1-6)]GalNAc
Method in brief: as §1

[19] = molecular target: Neu5Ac(a2-6)Gal(b1-4)GlcNAc(b1-3)Gal(b1-4)GlcNAc(b1-6)[Gal(b1-3)]GalNAc
Method in brief: as §1

[20] = molecular target: Neu5Ac(a2-6)Gal(b1-4)GlcNAc(b1-3)Gal(b1-4)[Fuc(a1-3)]GlcNAc(b1-3)Gal(b1-4)[Fuc(a1-3)]GlcNAc
Method in brief: as §1

[21] = molecular target: Neu5Ac(a2-6)Gal(b1-4)GlcNAc(b1-3)GalNAc
Method in brief: as §1

[22] = molecular target: Neu5Ac(a2-6)Gal(b1-4)GlcNAc(b1-3)[Neu5Ac(a2-6)Gal(b1-4)GlcNAc(b1-6)]GalNAc
Method in brief: as §1

[23] = molecular target: Neu5Ac(a2-6)Gal(b1-4)GlcNAc(b1-6)GalNAc
Method in brief: as §1

[24] = molecular target: Neu5Ac(a2-6)Gal(b1-4)GlcNAc(b1-6)[Gal(b1-3)GlcNAc(b1-3)]Gal(b1-4)Glc
Method in brief: as §1

[25] = molecular target: Neu5Ac(a2-6)Gal(b1-4)GlcNAc(b1-6)[Gal(b1-3)]GalNAc
Method in brief: as §1

[26] = molecular target: Neu5Ac(a2-6)Gal(b1-4)GlcNAc6S
Method in brief: as §1

[27] = molecular target: Neu5Ac(a2-6)GalNAc
Method in brief: as §1

[28] = molecular target: Neu5Ac(a2-6)GalNAc(b1-4)GlcNAc
Method in brief: as §1

[29] = molecular target: Neu5Ac(a2-6)GalNAc(b1-4)GlcNAc6S
Method in brief: as §1

[30] = molecular target: Neu5Ac(a2-6)GlcNAc(b1-4)GlcNAc
Method in brief: as §1

[31] = molecular target: Neu5Ac(a2-6)GlcNAc(b1-4)GlcNAc(b1-4)GlcNAc
Method in brief: as §1

B1: Awp1 (Candida glabrata) (protein)
chain: MSLITIFAFLIKATLVLSLDILTPTTLTGDQTFNEDVSVVSSLTLNDGSQYLFNNLLQIAPSSASVTANALAAVSVFTFSLPPSSSLSNSGTLIISNSNTGPSTEQHIVITPNVMANTGTITLSLAHTNTDSSSTLIIDPVTFYNTGTINYESIGSETNDPSLTGNILSIGSSGRTLQNLGTINLNAANSYYLLGTITENSGSINVQKGFLYVNALDFIGNTINLSTTTALAFISPVSQVVRVRGVFFGNIIASVGSSGTFSYNTQTGILTVTTNGVYSYDIGCGYNPALMSGQQETLSFQGNPYDTFLVLVNQPIPSDLTCAAVSSSITPSSSVEPSSSVVPSSSVEPSSSVEPSSSVEPSSSVEPSSSVEPSSSVEPSSSVEPSSSVEPSSSVEPSSSVEPSSSVEPSSSVEPSSSVEPSSSVEPSSSVEPSSSVEPSSSVEPSSSVEPSSSVEPSSLIVPSSSVEPSSSVLPSSSVVPSSSVEPSTPPIPSSSVEPSSSVVPSSPAVPSSSVEPSTPPIPSSSVVSASVFDTSSTLPSSPSVPPSSVSPSTISTPSSSAAPSSFCPTCVSSGTPPAPSSSAIVPTSSAGGGNGGDNREPGAAGQPGAAGQPGAAGQPGAAGQPGAAGQPGAAGQPGAAGQPGAAGQPGAAGQPGAAGQPGAGFGVGSEQPTPGAGAGSGSADGNQSGTGSGTGNGQQGSGQAGSGQAGSGQEGSGQAGSGQAGSGQAGSGQAGSGQAGLDNTASGQSEGGQASAMDGDQSGRDGQSNSGSLLQPNAQQGTGSGTGSDIGADQASGESPGQIGDAQPGSGTDQSSGRHSLAAEARTSQSHSLAADARTRSTTRQTSVIAPDTAPGTASGTAPGTAPGTAVVTTFHGCGTVNHKGMINILLALALLVLL
**Q.** For B1, which “glycan array binding signal (z-score)” value [1] is on record?
**A.** 0.89

**Q.** What about the “glycan array binding signal (z-score)” value [2] of the same binder?
**A.** -0.562

**Q.** What about the “glycan array binding signal (z-score)” value [3] of the same binder?
**A.** -0.835

**Q.** And the “glycan array binding signal (z-score)” value [4]?
**A.** 0.687

**Q.** What about the “glycan array binding signal (z-score)” value [5] of the same binder?
**A.** 0.198

**Q.** And the “glycan array binding signal (z-score)” value [6]?
**A.** 0.517

**Q.** And the “glycan array binding signal (z-score)” value [7]?
**A.** 1.05

**Q.** What about the “glycan array binding signal (z-score)” value [8] of the same binder?
**A.** 1.88

**Q.** What about the “glycan array binding signal (z-score)” value [9] of the same binder?
**A.** -1.23

**Q.** And the “glycan array binding signal (z-score)” value [10]?
**A.** 0.023

**Q.** What about the “glycan array binding signal (z-score)” value [11] of the same binder?
**A.** -0.983

**Q.** What about the “glycan array binding signal (z-score)” value [12] of the same binder?
**A.** -1.73

**Q.** And the “glycan array binding signal (z-score)” value [13]?
**A.** -1.51

**Q.** And the “glycan array binding signal (z-score)” value [14]?
**A.** -0.586

**Q.** And the “glycan array binding signal (z-score)” value [15]?
**A.** -0.173

**Q.** And the “glycan array binding signal (z-score)” value [16]?
**A.** 1.1

**Q.** What about the “glycan array binding signal (z-score)” value [17] of the same binder?
**A.** -0.942

**Q.** What about the “glycan array binding signal (z-score)” value [18] of the same binder?
**A.** -0.63

**Q.** What about the “glycan array binding signal (z-score)” value [19] of the same binder?
**A.** -1.49

**Q.** What about the “glycan array binding signal (z-score)” value [20] of the same binder?
**A.** -1.76

**Q.** And the “glycan array binding signal (z-score)” value [21]?
**A.** 0.116

**Q.** What about the “glycan array binding signal (z-score)” value [22] of the same binder?
**A.** 1.24

**Q.** What about the “glycan array binding signal (z-score)” value [23] of the same binder?
**A.** -0.007

**Q.** What about the “glycan array binding signal (z-score)” value [24] of the same binder?
**A.** 0.371

**Q.** And the “glycan array binding signal (z-score)” value [25]?
**A.** 0.474

**Q.** And the “glycan array binding signal (z-score)” value [26]?
**A.** -0.321

**Q.** What about the “glycan array binding signal (z-score)” value [27] of the same binder?
**A.** -0.787

**Q.** And the “glycan array binding signal (z-score)” value [28]?
**A.** -1.54

**Q.** And the “glycan array binding signal (z-score)” value [29]?
**A.** 0.406

**Q.** What about the “glycan array binding signal (z-score)” value [30] of the same binder?
**A.** 1.59

**Q.** And the “glycan array binding signal (z-score)” value [31]?
**A.** -1.04
